Measured values: patent publication US20190033318A1
Results are given in words; binding and its absence hold for the method and conditions named. Some entries that bind do so weakly or less than the wild type.

By UniProt entry, the sequences of proteins in these tests, tags left out. Where a name states a change or a piece, a line headed by the entry shows the natural chain unless it says otherwise. Residues count along the entry.
UniProt Q99814, residues 1-360: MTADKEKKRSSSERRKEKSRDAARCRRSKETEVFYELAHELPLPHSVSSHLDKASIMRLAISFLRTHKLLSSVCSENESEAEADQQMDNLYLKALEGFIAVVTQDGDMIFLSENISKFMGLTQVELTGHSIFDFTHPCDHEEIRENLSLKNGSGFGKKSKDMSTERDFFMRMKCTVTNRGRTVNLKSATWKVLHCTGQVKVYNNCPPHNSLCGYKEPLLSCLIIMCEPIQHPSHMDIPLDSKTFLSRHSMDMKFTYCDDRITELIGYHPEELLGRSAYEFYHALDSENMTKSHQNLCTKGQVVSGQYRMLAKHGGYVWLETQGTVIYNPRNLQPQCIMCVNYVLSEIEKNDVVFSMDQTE
2α PASB (HIF-2α PASB domain, 240-350) (Q99814, residues 240-350): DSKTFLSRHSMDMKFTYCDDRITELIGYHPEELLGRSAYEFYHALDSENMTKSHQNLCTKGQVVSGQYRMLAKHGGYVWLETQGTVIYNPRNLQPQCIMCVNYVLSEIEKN
UniProt Q16665: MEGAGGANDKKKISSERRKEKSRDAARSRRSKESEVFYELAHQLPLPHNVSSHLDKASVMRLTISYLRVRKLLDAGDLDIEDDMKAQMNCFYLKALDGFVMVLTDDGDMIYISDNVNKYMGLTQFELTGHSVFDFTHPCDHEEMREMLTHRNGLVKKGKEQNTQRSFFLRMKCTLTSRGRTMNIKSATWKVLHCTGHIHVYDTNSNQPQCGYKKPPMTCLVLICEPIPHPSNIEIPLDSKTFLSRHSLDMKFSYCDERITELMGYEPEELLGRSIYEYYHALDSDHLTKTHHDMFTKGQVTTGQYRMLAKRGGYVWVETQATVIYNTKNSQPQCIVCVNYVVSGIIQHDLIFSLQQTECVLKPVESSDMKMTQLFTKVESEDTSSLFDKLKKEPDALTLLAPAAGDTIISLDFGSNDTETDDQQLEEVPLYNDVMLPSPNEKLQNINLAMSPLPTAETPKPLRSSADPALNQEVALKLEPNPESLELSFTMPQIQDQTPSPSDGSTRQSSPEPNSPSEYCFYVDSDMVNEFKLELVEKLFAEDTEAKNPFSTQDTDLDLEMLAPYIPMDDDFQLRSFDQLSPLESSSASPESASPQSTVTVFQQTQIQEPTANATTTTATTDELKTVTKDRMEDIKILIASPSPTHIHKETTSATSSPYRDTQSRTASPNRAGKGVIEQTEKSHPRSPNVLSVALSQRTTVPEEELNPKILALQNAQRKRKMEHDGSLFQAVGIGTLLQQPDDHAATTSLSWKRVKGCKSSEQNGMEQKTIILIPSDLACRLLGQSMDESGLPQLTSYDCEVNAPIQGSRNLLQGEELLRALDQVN
1α PASB (HIF-1α PASB domain, 238-349): residues 238-349 of Q16665

Assays:
[1] = target: 2α PASB (HIF-2α PASB domain, 240-350) (UniProt Q99814); experiment: MST, labelled HIF-2α PASB domain
[2] = target: HIF-1α (construct not given) (UniProt Q16665); experiment: thermal shift assay
[3] = target: HIF-2α (construct not given) (UniProt Q99814); experiment: thermal shift assay
[4] = target: 1α PASB (HIF-1α PASB domain, 238-349) (UniProt Q16665); experiment: MST, labelled HIF-1α PASB domain
[5] = target: Trx-1α (thioredoxin-tagged HIF-1α 1-350, bHLH-PASA-PASB) (UniProt Q16665); experiment: competition ELISA: His-tagged Trx-1α on Ni plate, peptide titrated, binding of GST-1β (blocked partner) detected with anti-GST, A450
[6] = target: 2α PASB (HIF-2α PASB domain, 240-350) (UniProt Q99814); experiment: point competition ELISA with the PAS-B domain of HIF-2α; blocked partner GST-1β
[7] = target: 1α PASB (HIF-1α PASB domain, 238-349) (UniProt Q16665); experiment: ELISA and MST
[8] = target: 2α PASB (HIF-2α PASB domain, 240-350) (UniProt Q99814); experiment: ELISA and MST
[9] = target: 2α PASB (HIF-2α PASB domain, 240-350) (UniProt Q99814); experiment: competition ELISA: 2α PASB on Ni plate, peptide titrated, blocked partner GST-1β
[10] = target: 1α PASB (HIF-1α PASB domain, 238-349) (UniProt Q16665); experiment: competition ELISA: 1α PASB on Ni plate, peptide titrated, blocked partner GST-1β

binding [1]	binding [2]	binding [3]	binding [4]	binding [9]	Binder	also measured
binds	binds	binds	binds		CRLLIF (cyclic peptide (cyclo-, first amino acid joined to the last)) [cyclo-CRLLIF (SEQ ID NO 3)]	
binds	binds	binds	binds		CKLIIF (cyclic peptide (first amino acid joined to the last)) [cyclo-CKLIIF (SEQ ID NO 2)]	
	binds				SGWEMIQRR (cyclic peptide (first amino acid joined to the last)) [cyclo-… (SEQ ID NO 5)]	binding [5]: binds
binds	binds	binds	binds		CRVIIF (cyclic peptide (cyclo-, first amino acid joined to the last)) [cyclo-CRVIIF (SEQ ID NO 4)]	binding [6]: binds; binding [7]: binds; binding [8]: binds
				binds	CRAIIF	
				binds	CRVAIF	
				binds	CRVIAF	
				binds	ARVIIF	binding [10]: binds
